Here are results for 42 sequences from PMC7819943, “Rice protein-binding microarrays: a tool to detect cis-acting elements near promoter regions in rice”.

Chains of the proteins cited; added tags and fusions are not shown.
UniProt Q0JBA9, entry or part of it: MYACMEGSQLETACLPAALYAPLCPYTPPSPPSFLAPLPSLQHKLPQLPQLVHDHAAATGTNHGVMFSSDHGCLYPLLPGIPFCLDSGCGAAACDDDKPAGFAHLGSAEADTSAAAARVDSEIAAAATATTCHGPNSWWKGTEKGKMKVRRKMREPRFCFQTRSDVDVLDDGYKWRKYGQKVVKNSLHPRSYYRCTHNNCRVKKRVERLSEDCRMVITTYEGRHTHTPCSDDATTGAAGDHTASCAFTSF

Some of the results follow.

The target in the assay is OsWRKY34 (Oryza sativa, UniProt Q0JBA9 1-250). Briefly: protein-binding microarray (RPBM); PBS, 2% BSA, 51.3 ng/ul salmon testes DNA, 50 uM zinc acetate, 200 nM TF, 25 C, 1 h; high values mean tight binding. The note with it: protein: recombinant; tags: N-terminal polyhistidine and DsRed monomer fusion (pET32a); label: CyDye5-dUTP incorporated in the synthesized complementary strand; 3' TTTTT single-stranded linker to array surface; dsDNA, one strand shown. The gist of the method: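 Transcription factors were each fused at the N-terminus to a polyhistidine tag plus DsRed and expressed in E. coli BL21-CodonPlus before Ni–NTA purification. Binding to a double-stranded custom Agilent array was carried out with 200 nM protein at 25 °C for 1 h in PBS, 2% BSA, salmon testes DNA and 50 µM zinc acetate. The binding signal is per-feature fluorescence intensity, in arbitrary units, on an Axon 4000B scanner.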
For “TTCTTCCCAATGGACGCTTCCACAAAACTCTTCGTGCTTACGGAGTCACCTAGTGCAG”, the binding signal is 8080 fluorescence intensity (a.u.).

Consider “TCAAAGATTGGGCTTTGACCCGGCTTTGGCCGTCGTTGACCGGAGTCACCTAGTGCAG”, for which the binding signal is 9770 fluorescence intensity (a.u.).

As for “GTTTTAGATAAGATTGAAGTCAAACTTTTATAACTTTGACCGGAGTCACCTAGTGCAG”, the binding signal was 8210 fluorescence intensity (a.u.).

In the case of “ATAGACAACCCGCTTCTCTCTCTTATGTTACTGTCAGGGGCGGAGTCACCTAGTGCAG”, the binding signal was 13600 fluorescence intensity (a.u.).

“CTCCATCGCGCCGCCTACCACCGATTCCCTGCCGCATCTGCGGAGTCACCTAGTGCAG”: the binding signal was 9620 fluorescence intensity (a.u.).

In the case of “CCTCCTCCGGCTCCATCAGCTCGTCACGACCGGCGTCTCTCGGAGTCACCTAGTGCAG”, the binding signal is 8780 fluorescence intensity (a.u.).

As for “AAGACGAAAGGTCAAACGTTTGTTAAAAAGTCAACGGCGTCGGAGTCACCTAGTGCAG”, the binding signal is 9930 fluorescence intensity (a.u.).

“CCATTTTTCAGACTGTGTTGTTCTTGCTGGGCACTTTTCCCGGAGTCACCTAGTGCAG”: the binding signal is 13300 fluorescence intensity (a.u.).

Regarding “TCCTGTCTCTTGGTTCGGGTGATTCTTTCTTCCTTTCTGGCGGAGTCACCTAGTGCAG”, the binding signal was 9260 fluorescence intensity (a.u.).

In the case of “TTAGCCCTTTTGCTTCATATGTTTGACCAGATGCTTTCAACGGAGTCACCTAGTGCAG”, the binding signal is 9290 fluorescence intensity (a.u.).

Turning to “GGTACTAGTAGGATTCGTGGGGTTTCGTGACCGTATTAAACGGAGTCACCTAGTGCAG”, the binding signal is 8130 fluorescence intensity (a.u.).

Turning to “ACTTGTCGATGTAACATGCATATCAATTACATCTTTGTTTCGGAGTCACCTAGTGCAG”, the binding signal was 8980 fluorescence intensity (a.u.).

Take “TCATAAAACATGGCTTAGTATTTTGATTTTCTACCCGACACGGAGTCACCTAGTGCAG”: the binding signal was 8080 fluorescence intensity (a.u.).

On to “TGCCGCTGCCGCCGTGTGCCCGAGCGAGCCCACGCCCACACGGAGTCACCTAGTGCAG”, for which the binding signal was 8340 fluorescence intensity (a.u.).

Take “TCTCGTCGCGCGCCGGCGCCTCCTCTCGTCGCGCACCGGCCGGAGTCACCTAGTGCAG”: the binding signal was 8490 fluorescence intensity (a.u.).

For “CGGTAACTATTTCAGTTTTTGAAATTATGGTTTGTCTCGTCGGAGTCACCTAGTGCAG”, the binding signal is 8240 fluorescence intensity (a.u.).

With “ATCCCTCAAATTCCCGTGCGACACGTCTGCTGCTTCCATCCGGAGTCACCTAGTGCAG”, the binding signal is 8330 fluorescence intensity (a.u.).

For “CCACAACTCGTGCAACATCAGCTCACTCGTGTTCCCAACCCGGAGTCACCTAGTGCAG”, the binding signal is 8120 fluorescence intensity (a.u.).

Consider “CATTTTTGTCGGCTCTCTCTTTGTTTTGTTTGTTTTATTTCGGAGTCACCTAGTGCAG”, for which the binding signal was 13400 fluorescence intensity (a.u.).

As to “TTGGGGTTTAGTTTTTATATGGCTCACTTATTGGGTCAACCGGAGTCACCTAGTGCAG”, the binding signal was 15400 fluorescence intensity (a.u.).

As to “GGACAGAGGGAGAGAGCCAAACATAGAGGGGCGGGTTAATCGGAGTCACCTAGTGCAG”, the binding signal was 12200 fluorescence intensity (a.u.).

In the case of “GAGAGGAGTGTCACCTCTTCTTCTTCTTCTTCACCTGCTACGGAGTCACCTAGTGCAG”, the binding signal is 8290 fluorescence intensity (a.u.).

On to “ATCGTCTCTCTCTTCTGTCCCTTATATAAGCTAGCTCCACCGGAGTCACCTAGTGCAG”, for which the binding signal was 8900 fluorescence intensity (a.u.).

For “GGTGGGGTAGAGTCGACGGCGCCGTGGTGGGGCGGAGTTACGGAGTCACCTAGTGCAG”, the binding signal is 12400 fluorescence intensity (a.u.).

Regarding “TGTTCTCCATGCATGGCTGCACCTGAACTTGTCCTGCACTCGGAGTCACCTAGTGCAG”, the binding signal is 8190 fluorescence intensity (a.u.).

In the case of “ACTGCACTTCCTAGCTTAGCTGTTCATCTCTCACCTGACTCGGAGTCACCTAGTGCAG”, the binding signal is 9570 fluorescence intensity (a.u.).

“GAACATGTTGTTCAGTTGGCCTCGTTTTCTCACCTTTGCTCGGAGTCACCTAGTGCAG”: the binding signal is 12500 fluorescence intensity (a.u.).

Turning to “TGTGTTCGTTGTTCGCGCGTCTATATAAGCGGTGCCGCTCCGGAGTCACCTAGTGCAG”, the binding signal is 10800 fluorescence intensity (a.u.).

For “ACTGTTAGTTGCATTCGAGTTGTCATCCATATTTTTAACACGGAGTCACCTAGTGCAG”, the binding signal was 9940 fluorescence intensity (a.u.).

In the case of “TATTTCTGTATTTCCTATTGCTGTATTTCGAAGGAGTCGACGGAGTCACCTAGTGCAG”, the binding signal is 8300 fluorescence intensity (a.u.).

Consider “TACAGTTCTGTGGGTGGGGACAGCTTCCTAGATATCCGGCCGGAGTCACCTAGTGCAG”, for which the binding signal was 16000 fluorescence intensity (a.u.).

As for “GTATTAAACCAAACAAGCCCTACATTTTTTTATGTACATTCGGAGTCACCTAGTGCAG”, the binding signal is 8250 fluorescence intensity (a.u.).

Consider “GTTTCTACTCTGTTTCACACTAACTGTTCTAGATCATGACCGGAGTCACCTAGTGCAG”, for which the binding signal is 11800 fluorescence intensity (a.u.).

In the case of “TCCATCACATCACATCACAGCCTCGTTCGTTCGTCGCTGACGGAGTCACCTAGTGCAG”, the binding signal was 10600 fluorescence intensity (a.u.).

Consider “TGTCCGCCAACCTCCGCGTCGTGCCGCTCGACCTCCCGGCCGGAGTCACCTAGTGCAG”, for which the binding signal was 8310 fluorescence intensity (a.u.).

For “TTTTTATTACATTGTATATACTACTCCCTCTGTCCCATAACGGAGTCACCTAGTGCAG”, the binding signal is 8990 fluorescence intensity (a.u.).

In the case of “GTGCGGTTTTTCTCCTGGTTCTTTTGTGTACTTTATACCACGGAGTCACCTAGTGCAG”, the binding signal is 18200 fluorescence intensity (a.u.).

With “GATTTGAGTTTTCCTGTTCATCTTTTCGTTAAGATAAAAACGGAGTCACCTAGTGCAG”, the binding signal is 9210 fluorescence intensity (a.u.).

On to “CTTATTGTTTTGATTATGCTTATGTGAATCGCTTATTAACCGGAGTCACCTAGTGCAG”, for which the binding signal was 8660 fluorescence intensity (a.u.).

As to “GGGCCCCACCATTTTAAAATTATCTTTTTTATGTAACTGACGGAGTCACCTAGTGCAG”, the binding signal was 9330 fluorescence intensity (a.u.).

As for “TAGTTCTTCCATGCTTTGCTTGCTCTCCCTTGTGAACACACGGAGTCACCTAGTGCAG”, the binding signal is 8600 fluorescence intensity (a.u.).

Regarding “CTTCTTCTTCTTCTTCTTCTTTTCTTTTTTATATCAAATCCGGAGTCACCTAGTGCAG”, the binding signal is 9520 fluorescence intensity (a.u.).
